The text below walks through data of patent US20050048603A1 (priority 2001, published 2005).

Results are given in words; binding and its absence hold for the method and conditions named. Some results given as binding are weak or reduced against the parent protein; the word gives no strength. Tags and fused reporters may be left off the sequences shown.

This test deals with mycoAC holoenzyme expressed in E. coli (N-terminal His6-tag) (Mycobacterium tuberculosis) (UniProt P9WQ35). The experiment in a line: SDS-PAGE and Western blot of the holoenzyme expressed in E. coli; 92 kDa band. (In general: Immunoblotting shows a protein as a band on a membrane.)

B1: mycoAC holoenzyme expressed in E. coli (N-terminal His6-tag) (enzyme)
chain: MRGSHHHHHHGSMAARKCGAPPIAADGSTRRPDCVTAVRTQARAPTQHYAESVARRQRVLTITAWLAVVVTGSFALMQLATGAGGWYIALINVFTAVTFAIVPLLHRFGGLVAPLTFIGTAYVAIFAIGWDVGTDAGAQFFFLVAAALVVLLVGIEHTALAVGLAAVAAGLVIALEFLVPPDTGLQPPWAMSVSFVLTTVSACGVAVATVWFALRDTARAEAVMEAEHDRSEALLANMLPASIAERLKEPERNIIADKYDEASVLFADIVGFTERASSTAPADLVRFLDRLYSAFDELVDQHGLEKIKVSGDSYMVVSGVPRPRPDHTQALADFALDMTNVAAQLKDPRGNPVPLRVGLATGPVVAGVVGSRRFFYDVWGDAVNVASRMESTDSVGQIQVPDEVYERLKDDFVLRERGHINVKGKGVMRTWYLIGRKVAADPGEVRGAEPRTAGV
In the case of B1, the binding result is listed as “binds”.
